# Some of the results follow.
# By UniProt entry, the sequences of proteins in these tests, tags left out. Where a name states a change or a piece, a line headed by the entry shows the natural chain unless it says otherwise.
# UniProt P62258: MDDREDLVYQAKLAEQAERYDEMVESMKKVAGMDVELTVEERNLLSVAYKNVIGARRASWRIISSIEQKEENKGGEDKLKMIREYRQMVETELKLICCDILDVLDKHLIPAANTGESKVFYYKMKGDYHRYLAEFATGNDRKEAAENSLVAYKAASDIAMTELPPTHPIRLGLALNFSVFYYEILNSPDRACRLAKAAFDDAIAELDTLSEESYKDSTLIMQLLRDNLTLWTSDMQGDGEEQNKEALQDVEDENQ
# UniProt Q7Z739: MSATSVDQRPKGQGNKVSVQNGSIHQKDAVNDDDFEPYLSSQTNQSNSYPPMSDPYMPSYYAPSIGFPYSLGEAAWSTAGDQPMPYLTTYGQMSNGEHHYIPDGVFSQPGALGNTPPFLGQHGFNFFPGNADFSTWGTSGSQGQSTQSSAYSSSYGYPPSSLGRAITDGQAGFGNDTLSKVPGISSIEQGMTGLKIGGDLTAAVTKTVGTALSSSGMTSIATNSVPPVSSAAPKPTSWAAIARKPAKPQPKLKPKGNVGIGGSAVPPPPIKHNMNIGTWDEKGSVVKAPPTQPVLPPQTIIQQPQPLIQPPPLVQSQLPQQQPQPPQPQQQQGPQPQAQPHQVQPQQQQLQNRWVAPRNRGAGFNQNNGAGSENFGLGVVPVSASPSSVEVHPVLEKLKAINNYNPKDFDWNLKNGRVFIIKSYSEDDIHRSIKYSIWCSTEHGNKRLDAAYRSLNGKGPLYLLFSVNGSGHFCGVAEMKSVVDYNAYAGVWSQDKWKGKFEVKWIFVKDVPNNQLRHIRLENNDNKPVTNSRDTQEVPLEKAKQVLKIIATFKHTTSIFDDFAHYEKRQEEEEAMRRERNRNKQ
# UniProt Q86U90: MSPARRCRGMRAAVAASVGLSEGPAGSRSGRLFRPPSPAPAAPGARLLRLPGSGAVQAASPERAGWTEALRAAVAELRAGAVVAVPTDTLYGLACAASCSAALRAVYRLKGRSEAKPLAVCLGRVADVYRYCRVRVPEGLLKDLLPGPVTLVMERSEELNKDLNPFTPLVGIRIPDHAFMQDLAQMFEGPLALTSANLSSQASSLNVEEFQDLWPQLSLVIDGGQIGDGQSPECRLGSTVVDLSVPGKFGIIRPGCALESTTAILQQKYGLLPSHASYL
# UniProt Q96QU8: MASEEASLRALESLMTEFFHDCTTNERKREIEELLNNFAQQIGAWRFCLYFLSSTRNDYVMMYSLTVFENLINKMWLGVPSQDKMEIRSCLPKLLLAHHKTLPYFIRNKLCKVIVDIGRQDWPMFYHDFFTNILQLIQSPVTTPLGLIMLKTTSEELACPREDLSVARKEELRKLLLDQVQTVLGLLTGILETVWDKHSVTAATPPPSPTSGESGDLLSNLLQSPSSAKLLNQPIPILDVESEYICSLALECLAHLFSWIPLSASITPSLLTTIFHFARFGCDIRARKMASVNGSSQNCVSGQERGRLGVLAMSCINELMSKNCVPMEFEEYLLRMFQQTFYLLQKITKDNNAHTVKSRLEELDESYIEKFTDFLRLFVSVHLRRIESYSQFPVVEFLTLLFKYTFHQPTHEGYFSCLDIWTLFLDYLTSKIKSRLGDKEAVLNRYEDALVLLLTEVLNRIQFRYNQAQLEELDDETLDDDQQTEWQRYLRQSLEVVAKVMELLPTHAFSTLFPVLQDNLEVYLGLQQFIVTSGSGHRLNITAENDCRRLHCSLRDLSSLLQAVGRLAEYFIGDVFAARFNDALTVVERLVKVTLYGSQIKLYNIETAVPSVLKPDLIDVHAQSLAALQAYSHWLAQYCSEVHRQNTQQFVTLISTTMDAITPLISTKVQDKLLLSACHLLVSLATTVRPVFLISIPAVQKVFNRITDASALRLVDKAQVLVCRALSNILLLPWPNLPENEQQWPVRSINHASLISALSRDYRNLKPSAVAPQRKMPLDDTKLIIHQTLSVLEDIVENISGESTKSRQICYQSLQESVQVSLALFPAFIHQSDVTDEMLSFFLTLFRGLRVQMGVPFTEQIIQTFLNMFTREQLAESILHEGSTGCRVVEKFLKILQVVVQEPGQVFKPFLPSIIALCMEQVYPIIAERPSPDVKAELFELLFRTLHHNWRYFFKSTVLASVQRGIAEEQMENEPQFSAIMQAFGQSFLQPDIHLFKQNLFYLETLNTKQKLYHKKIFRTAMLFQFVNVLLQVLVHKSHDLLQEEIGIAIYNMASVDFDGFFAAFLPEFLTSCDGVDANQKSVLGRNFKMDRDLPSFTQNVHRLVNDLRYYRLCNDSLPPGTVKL
# UniProt Q5VVQ6: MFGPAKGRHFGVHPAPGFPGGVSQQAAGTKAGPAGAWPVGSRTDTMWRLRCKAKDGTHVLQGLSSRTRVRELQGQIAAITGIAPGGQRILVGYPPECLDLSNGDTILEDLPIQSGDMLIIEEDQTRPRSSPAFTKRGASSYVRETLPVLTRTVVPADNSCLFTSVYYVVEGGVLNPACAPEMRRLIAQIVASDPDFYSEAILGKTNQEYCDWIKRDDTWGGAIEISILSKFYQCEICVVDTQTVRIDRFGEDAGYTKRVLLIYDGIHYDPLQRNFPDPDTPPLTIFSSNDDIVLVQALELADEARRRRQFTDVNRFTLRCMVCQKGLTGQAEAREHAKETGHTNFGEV
# UniProt Q9HCC9: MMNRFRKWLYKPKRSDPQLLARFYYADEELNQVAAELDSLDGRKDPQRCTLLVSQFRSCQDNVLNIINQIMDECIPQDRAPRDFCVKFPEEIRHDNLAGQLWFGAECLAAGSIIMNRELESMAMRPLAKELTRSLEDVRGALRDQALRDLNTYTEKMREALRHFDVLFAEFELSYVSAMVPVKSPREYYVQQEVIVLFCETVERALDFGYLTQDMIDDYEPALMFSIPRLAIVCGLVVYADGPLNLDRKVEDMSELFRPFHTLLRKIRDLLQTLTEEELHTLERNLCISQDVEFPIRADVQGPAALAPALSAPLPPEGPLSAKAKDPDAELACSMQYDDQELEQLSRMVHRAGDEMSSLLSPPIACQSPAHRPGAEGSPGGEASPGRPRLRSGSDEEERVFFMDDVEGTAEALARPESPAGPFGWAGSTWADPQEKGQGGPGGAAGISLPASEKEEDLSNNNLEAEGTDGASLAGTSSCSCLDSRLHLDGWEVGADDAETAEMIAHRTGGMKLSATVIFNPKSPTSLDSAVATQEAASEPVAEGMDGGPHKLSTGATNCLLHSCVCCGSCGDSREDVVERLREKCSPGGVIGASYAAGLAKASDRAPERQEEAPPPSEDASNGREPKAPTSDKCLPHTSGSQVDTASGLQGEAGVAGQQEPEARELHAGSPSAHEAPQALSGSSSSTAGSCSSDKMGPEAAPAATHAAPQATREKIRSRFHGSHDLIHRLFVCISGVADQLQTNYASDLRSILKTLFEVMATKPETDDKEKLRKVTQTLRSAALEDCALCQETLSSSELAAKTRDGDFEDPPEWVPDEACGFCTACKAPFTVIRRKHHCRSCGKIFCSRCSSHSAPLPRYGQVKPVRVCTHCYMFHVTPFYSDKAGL
# UniProt Q6NZY4: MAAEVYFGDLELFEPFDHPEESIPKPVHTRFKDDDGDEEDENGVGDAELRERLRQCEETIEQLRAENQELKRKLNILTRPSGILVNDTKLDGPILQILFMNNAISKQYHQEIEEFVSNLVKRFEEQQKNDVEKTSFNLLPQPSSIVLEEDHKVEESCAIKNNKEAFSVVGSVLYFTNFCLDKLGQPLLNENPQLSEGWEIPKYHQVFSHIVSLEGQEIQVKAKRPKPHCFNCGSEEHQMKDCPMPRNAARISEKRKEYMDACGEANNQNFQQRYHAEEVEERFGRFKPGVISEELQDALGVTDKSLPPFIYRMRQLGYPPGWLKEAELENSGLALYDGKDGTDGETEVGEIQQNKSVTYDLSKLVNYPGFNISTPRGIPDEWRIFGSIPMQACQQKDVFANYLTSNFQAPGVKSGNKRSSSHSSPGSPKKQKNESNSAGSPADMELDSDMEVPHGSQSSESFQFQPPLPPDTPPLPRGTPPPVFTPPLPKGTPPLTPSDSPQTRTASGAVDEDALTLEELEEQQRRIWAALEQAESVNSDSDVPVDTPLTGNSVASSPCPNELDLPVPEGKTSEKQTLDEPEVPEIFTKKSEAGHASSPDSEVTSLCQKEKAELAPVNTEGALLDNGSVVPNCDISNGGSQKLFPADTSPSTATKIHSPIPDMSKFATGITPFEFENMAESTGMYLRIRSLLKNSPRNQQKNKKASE
# UniProt P62699: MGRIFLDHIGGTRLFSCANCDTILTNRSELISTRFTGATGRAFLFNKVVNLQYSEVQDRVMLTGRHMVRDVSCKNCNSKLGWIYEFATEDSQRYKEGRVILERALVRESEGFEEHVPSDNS
# UniProt Q7Z3T8: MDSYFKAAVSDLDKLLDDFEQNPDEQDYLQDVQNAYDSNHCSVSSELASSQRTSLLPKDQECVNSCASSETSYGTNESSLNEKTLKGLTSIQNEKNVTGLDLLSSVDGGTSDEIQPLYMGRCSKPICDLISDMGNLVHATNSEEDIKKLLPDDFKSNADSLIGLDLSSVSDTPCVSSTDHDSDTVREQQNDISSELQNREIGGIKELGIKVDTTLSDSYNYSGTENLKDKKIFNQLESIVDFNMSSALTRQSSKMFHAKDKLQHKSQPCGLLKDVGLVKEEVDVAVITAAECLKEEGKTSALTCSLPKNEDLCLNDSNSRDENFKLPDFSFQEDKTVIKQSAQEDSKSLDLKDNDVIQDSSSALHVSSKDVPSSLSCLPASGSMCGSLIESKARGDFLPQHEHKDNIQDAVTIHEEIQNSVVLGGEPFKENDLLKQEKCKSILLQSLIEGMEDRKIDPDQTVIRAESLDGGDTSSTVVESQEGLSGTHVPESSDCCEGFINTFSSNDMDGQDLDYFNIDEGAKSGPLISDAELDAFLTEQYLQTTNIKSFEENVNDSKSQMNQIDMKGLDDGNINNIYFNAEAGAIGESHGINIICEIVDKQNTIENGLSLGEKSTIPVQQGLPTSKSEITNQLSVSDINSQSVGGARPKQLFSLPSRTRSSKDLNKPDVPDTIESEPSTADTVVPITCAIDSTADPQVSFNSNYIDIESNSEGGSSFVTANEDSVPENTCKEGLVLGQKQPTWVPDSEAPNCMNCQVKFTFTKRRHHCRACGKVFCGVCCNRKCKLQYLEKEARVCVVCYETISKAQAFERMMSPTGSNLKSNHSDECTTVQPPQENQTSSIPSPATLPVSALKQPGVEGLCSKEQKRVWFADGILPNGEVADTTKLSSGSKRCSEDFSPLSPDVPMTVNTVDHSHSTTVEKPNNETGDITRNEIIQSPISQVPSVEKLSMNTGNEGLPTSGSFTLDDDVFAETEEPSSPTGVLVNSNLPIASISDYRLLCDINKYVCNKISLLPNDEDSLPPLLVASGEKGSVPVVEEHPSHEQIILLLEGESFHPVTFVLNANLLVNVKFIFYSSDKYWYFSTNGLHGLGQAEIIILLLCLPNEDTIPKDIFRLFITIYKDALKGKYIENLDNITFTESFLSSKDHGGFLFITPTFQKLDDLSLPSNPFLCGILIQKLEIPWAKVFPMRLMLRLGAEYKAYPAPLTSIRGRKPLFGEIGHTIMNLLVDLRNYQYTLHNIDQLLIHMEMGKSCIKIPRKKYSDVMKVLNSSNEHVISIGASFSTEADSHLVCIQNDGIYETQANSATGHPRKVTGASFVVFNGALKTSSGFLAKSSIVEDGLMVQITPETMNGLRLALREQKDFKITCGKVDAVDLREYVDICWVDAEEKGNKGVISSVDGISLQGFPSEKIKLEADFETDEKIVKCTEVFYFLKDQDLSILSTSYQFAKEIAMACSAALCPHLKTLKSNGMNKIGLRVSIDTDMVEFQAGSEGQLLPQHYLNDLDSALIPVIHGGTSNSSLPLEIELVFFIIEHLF
# UniProt Q96K21: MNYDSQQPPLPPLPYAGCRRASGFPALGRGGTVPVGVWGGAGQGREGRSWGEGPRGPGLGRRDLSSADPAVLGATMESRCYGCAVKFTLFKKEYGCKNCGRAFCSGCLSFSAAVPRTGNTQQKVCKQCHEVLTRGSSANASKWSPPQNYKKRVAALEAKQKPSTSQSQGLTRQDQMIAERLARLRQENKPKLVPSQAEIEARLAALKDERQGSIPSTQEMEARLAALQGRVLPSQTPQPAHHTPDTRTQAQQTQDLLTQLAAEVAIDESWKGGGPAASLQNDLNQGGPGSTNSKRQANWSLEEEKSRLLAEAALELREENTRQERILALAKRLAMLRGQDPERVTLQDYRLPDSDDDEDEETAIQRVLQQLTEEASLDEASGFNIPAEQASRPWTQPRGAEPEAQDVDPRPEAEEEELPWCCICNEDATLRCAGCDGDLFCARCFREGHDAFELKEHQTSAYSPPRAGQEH
# UniProt Q04917: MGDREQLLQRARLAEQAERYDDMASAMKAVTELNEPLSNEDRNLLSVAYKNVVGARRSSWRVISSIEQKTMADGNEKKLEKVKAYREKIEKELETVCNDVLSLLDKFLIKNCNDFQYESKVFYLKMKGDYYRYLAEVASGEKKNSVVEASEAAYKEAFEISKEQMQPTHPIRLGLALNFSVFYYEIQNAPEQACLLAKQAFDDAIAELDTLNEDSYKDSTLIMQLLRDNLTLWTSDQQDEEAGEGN
# Tests used:
# Assay in all cases: log2 fold change, soluble protein after heating vs DMSO (PISA); higher = thermal stabilisation; K562 lysate, 10 uM; active = over 0.2 and 3.5 SD of the protein, either way, in both replicates (recomputed)
# [1] = compound: C=CC(=O)N1CCC[C@@H](n2nc(-c3ccc(Oc4ccccc4)cc3)c3c(N)ncnc32)C1 [ibrutinib]
# Summary of the method: (§1)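 To prepare the extract, K562 pellets were dounce-homogenised in PBS pH 7.4 with 1 mM MgCl2, giving crude material at 1 mg/mL protein. This was treated with 10 μM compound for 30 min, then heated in aliquots for 3 min over 48°C-58°C before pooling and addition of NP-40 to 0.5% at 4°C. Centrifugation at 21,000xg for 90 min left soluble protein in the supernatant, which TMTpro 16plex LC-MS/MS quantified with equalised channel sums. Results are log-two fold changes in thermal stability compared with solvent controls, from duplicates.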
# [2] = compound: CC(=O)c1cnc2ccc(-c3cc(Cl)c(O)c(Cl)c3)nc2c1N[C@H]1CC[C@H](CN(C)C)CC1
# Summary of the method: as §1
# [3] = compound: CC(C)(C)Cn1c(N)nc2ccc(-c3[nH]c(C(C)(C)C)nc3-c3ccc(F)cc3)nc21 [ralimetinib]
# Summary of the method: as §1
# [4] = compound: CC(C)(O)CC(=O)NCCn1ccc2ncnc(Nc3ccc(Oc4cccc(C(F)(F)F)c4)c(Cl)c3)c21
# Summary of the method: as §1
# [5] = compound: CC(C)C1=C2N=C(C=C(N2N=C1)NCC3=CC=CC=C3)NCCCCCCN
# Summary of the method: as §1
# [6] = compound: CC1=C(C(CC(=O)N1)C2=CC=C(C=C2)C(F)(F)F)C(=O)NC3=C(C=C4C(=C3)C=NN4)F
# Summary of the method: as §1
# [7] = compound: CC1=C(C2=C(C=C1)C(=O)C3=CC=CC=C3N2CCCN)C
# Summary of the method: as §1
# [8] = compound: CC1=C(C=C(C=C1)NC(=O)C2=CC(=CC=C2)C(C)(C)C#N)NC3=CC4=C(C=C3)N=CN(C4=O)C
# Summary of the method: as §1
# [9] = compound: CC1=C(C=C(C=C1)NC(=O)C2=CC(=CC=C2)N(C)C)NC(=O)C3=CC=C(C=C3)O
# Summary of the method: as §1
# [10] = compound: CC1=CC=C(C=C1)SC2=C3C=C(SC3=CN=C2)C(=O)N
# Summary of the method: as §1
# [11] = compound: CCCS(=O)(=O)Nc1ccc(F)c(C(=O)c2c[nH]c3ncc(-c4ccc(Cl)cc4)cc23)c1F [vemurafenib]
# Summary of the method: as §1
# [12] = compound: CCCS(=O)(=O)Nc1ccc(F)c(C(=O)c2c[nH]c3ncc(Cl)cc23)c1F
# Summary of the method: as §1
# [13] = compound: CCN(CCCOc1ccc2c(Nc3cc(CC(=O)Nc4cccc(F)c4)[nH]n3)ncnc2c1)CCOP(=O)(O)O [barasertib]
# Summary of the method: as §1
# [14] = compound: CC[C@@H]1C(=O)N(C)c2cnc(Nc3ccc(C(=O)NC4CCN(C)CC4)cc3OC)nc2N1C1CCCC1
# Summary of the method: as §1
# [15] = compound: CC[C@@H]1C(=O)N(C)c2cnc(Nc3ccc(C(=O)N[C@H]4CC[C@H](N5CCN(CC6CC6)CC5)CC4)cc3OC)nc2N1C(C)C [volasertib]
# Summary of the method: as §1
# [16] = compound: CCn1c(C(=O)N(C2CC2)C2CC2)cc2c3c(ncn3C)c(Nc3cc(C)n(C)n3)nc21
# Summary of the method: as §1
# [17] = compound: CCn1cc(-c2ccnc3[nH]c(-c4cccc(CN(C)C)c4)cc23)c(-c2ccc(NC(=O)N(C)C)cc2)n1
# Summary of the method: as §1
# [18] = compound: CN1CCC(CNc2ccc3ncc(-c4cccc(OC(F)(F)F)c4)n3n2)CC1
# Summary of the method: as §1
# [19] = compound: CN1CCN(CCOc2cc(OC3CCOCC3)c3c(Nc4c(Cl)ccc5c4OCO5)ncnc3c2)CC1 [saracatinib]
# Summary of the method: as §1
# [20] = compound: CN1CCN(c2nc(C3=C(c4c[nH]c5ccccc45)C(=O)NC3=O)c3ccccc3n2)CC1 [sotrastaurin]
# Summary of the method: as §1
Target,log2 fold change [1],log2 fold change [2],log2 fold change [3],log2 fold change [4],log2 fold change [5],log2 fold change [6],log2 fold change [7],log2 fold change [8],log2 fold change [9],log2 fold change [10],log2 fold change [11],log2 fold change [12],log2 fold change [13],log2 fold change [14],log2 fold change [15],log2 fold change [16],log2 fold change [17],log2 fold change [18],log2 fold change [19],log2 fold change [20]
YWHAE (UniProt P62258),inactive: 0.017,inactive: -0.007,inactive: 0.004,inactive: -0.01,inactive: -0.02,inactive: -0.025,inactive: 0.009,inactive: 0.006,inactive: 0.001,inactive: -0.027,inactive: -0.002,inactive: -0.006,inactive: 0.009,inactive: 0.033,inactive: 0.024,inactive: 0.017,inactive: 0.01,inactive: 0.035,inactive: -0.015,inactive: 0.022
YTHDF3 (UniProt Q7Z739),inactive: -0.026,inactive: 0.066,inactive: -0.014,inactive: -0.033,inactive: 0.008,inactive: 0.017,inactive: 0.074,active: -0.334,inactive: 0.009,inactive: 0.096,inactive: -0.019,inactive: 0.002,inactive: 0.119,inactive: 0.058,inactive: -0.071,inactive: 0.168,inactive: -0.041,inactive: 0.01,inactive: 0.076,inactive: -0.083
YRDC (UniProt Q86U90),inactive: 0.01,inactive: -0.002,inactive: 0.025,inactive: -0.012,inactive: 0.027,inactive: -0.006,inactive: -0.015,inactive: 0.021,inactive: 0.007,inactive: 0.008,inactive: 0.03,inactive: 0.093,inactive: 0.019,inactive: 0.04,inactive: -0.005,inactive: -0.045,inactive: -0.019,inactive: 0.089,inactive: -0.043,inactive: -0.002
ZC3HAV1 (UniProt Q7Z2W4),inactive: 0.03,inactive: -0.013,inactive: -0.011,inactive: 0.024,inactive: 0.003,inactive: 0.027,inactive: -0.002,inactive: 0.022,inactive: 0.022,inactive: -0.017,inactive: -0.014,inactive: 0.021,inactive: 0.005,inactive: 0,inactive: -0.035,inactive: 0.009,inactive: -0.062,inactive: -0.01,inactive: 0.001,inactive: 0.004
XPO6 (UniProt Q96QU8),inactive: -0.013,inactive: 0.018,inactive: 0.006,inactive: -0.006,inactive: -0.033,inactive: -0.003,inactive: -0.024,inactive: 0.028,inactive: 0.062,inactive: -0.006,inactive: 0.033,inactive: 0.013,inactive: 0.062,inactive: -0.03,inactive: -0.058,inactive: -0.049,inactive: 0.448,inactive: 0.071,inactive: -0.007,inactive: 0
YOD1 (UniProt Q5VVQ6),inactive: 0.114,inactive: -0.009,inactive: 0.011,inactive: -0.043,inactive: -0.002,inactive: 0.014,inactive: -0.006,inactive: 0.002,inactive: 0.006,inactive: -0.006,inactive: -0.012,inactive: 0.015,inactive: 0.038,inactive: -0.056,inactive: -0.015,inactive: -0.017,inactive: -0.047,inactive: -0.015,inactive: -0.009,inactive: 0.05
ZFYVE28 (UniProt Q9HCC9),inactive: -0.021,inactive: -0.028,inactive: 0.019,inactive: -0.023,inactive: -0.068,inactive: 0.044,inactive: 0.073,inactive: 0.024,inactive: -0.154,inactive: 0.124,inactive: -0.054,inactive: -0.04,inactive: 0.108,inactive: 0.045,inactive: 0.259,inactive: -0.024,inactive: -0.033,inactive: 0.056,inactive: -0.105,inactive: 0.029
YBX3 isoform 2 (UniProt P16989),inactive: -0.14,inactive: 0.008,inactive: 0.026,inactive: -0.05,inactive: -0.005,inactive: 0.051,inactive: -0.046,inactive: 0.024,inactive: 0.06,inactive: -0.003,inactive: 0.036,inactive: -0.003,inactive: -0.118,inactive: 0.064,inactive: -0.003,inactive: 0.179,inactive: 0.129,inactive: 0.03,inactive: -0.06,inactive: 0.068
ZC3H18 (UniProt E7ERS3),inactive: 0.008,inactive: -0.02,inactive: -0.025,inactive: -0.058,inactive: 0.01,inactive: -0.008,inactive: -0.022,inactive: 0.055,inactive: 0.002,inactive: 0.023,inactive: -0.002,inactive: 0.005,inactive: 0,inactive: -0.004,inactive: -0.018,inactive: 0.017,inactive: -0.008,inactive: -0.004,inactive: 0.043,inactive: -0.03
YIPF4 (UniProt Q9BSR8),inactive: 0.011,inactive: -0.054,inactive: -0.031,inactive: -0.029,inactive: -0.011,inactive: 0.025,inactive: -0.015,inactive: 0.013,inactive: 0.023,inactive: 0.073,inactive: 0.013,inactive: 0.025,inactive: -0.023,inactive: -0.026,inactive: -0.005,inactive: 0.012,inactive: -0.024,inactive: -0.017,inactive: 0.016,inactive: 0.017
ZCCHC8 (UniProt Q6NZY4),inactive: 0.013,inactive: 0.008,inactive: -0.005,inactive: -0.027,inactive: -0.011,inactive: 0.023,inactive: -0.013,inactive: 0.011,inactive: 0.02,inactive: -0.007,inactive: 0.016,inactive: 0.005,inactive: -0.045,inactive: 0.077,inactive: -0.011,inactive: -0.002,inactive: 0,inactive: -0.008,inactive: 0.014,inactive: 0.008
YARS (UniProt P54577),inactive: -0.017,inactive: 0.004,inactive: 0.011,inactive: -0.004,inactive: 0.013,inactive: -0.013,inactive: 0.022,inactive: -0.006,inactive: 0.024,inactive: 0.018,inactive: -0.008,inactive: -0.012,inactive: -0.015,inactive: -0.041,inactive: -0.031,inactive: 0.014,inactive: -0.031,inactive: -0.034,inactive: 0.019,inactive: -0.02
YPEL5 (UniProt P62699),inactive: -0.001,inactive: -0.038,inactive: 0.018,inactive: -0.047,inactive: 0.076,inactive: -0.012,inactive: 0.009,inactive: 0.031,inactive: -0.048,inactive: 0.078,inactive: 0.038,inactive: 0.013,inactive: 0.044,inactive: -0.005,inactive: 0.023,inactive: 0.093,inactive: -0.055,inactive: 0.054,inactive: -0.033,inactive: -0.08
ZFYVE16 (UniProt Q7Z3T8),inactive: 0.046,inactive: 0.026,inactive: 0.029,inactive: -0.018,inactive: -0.022,inactive: -0.026,inactive: 0.003,inactive: 0.011,inactive: 0.028,inactive: -0.007,inactive: 0.005,inactive: 0.035,inactive: -0.002,inactive: 0.025,inactive: -0.02,inactive: -0.005,inactive: -0.052,inactive: 0.011,inactive: 0.036,inactive: 0.011
ZFYVE19 (UniProt Q96K21),inactive: -0.051,inactive: -0.031,inactive: -0.004,inactive: 0.009,inactive: -0.015,inactive: -0.028,inactive: -0.067,inactive: -0.037,inactive: -0.013,inactive: -0.042,inactive: 0,inactive: 0.02,inactive: 0.016,inactive: 0.077,inactive: 0.023,inactive: 0.006,active: -0.232,inactive: 0.126,inactive: -0.027,inactive: 0.013
YWHAH (UniProt Q04917),inactive: 0.001,inactive: -0.001,inactive: -0.039,inactive: 0.017,inactive: 0.032,inactive: 0.013,inactive: 0.004,inactive: -0.051,inactive: 0.012,inactive: 0.012,inactive: -0.012,inactive: -0.035,inactive: -0.05,inactive: -0.013,inactive: 0.004,inactive: -0.005,inactive: 0.21,inactive: -0.083,inactive: -0.027,inactive: 0.019

# For reference, some entries already given.
Target,log2 fold change [1],log2 fold change [2],log2 fold change [3],log2 fold change [4],log2 fold change [5],log2 fold change [6],log2 fold change [7],log2 fold change [8],log2 fold change [9],log2 fold change [10],log2 fold change [11],log2 fold change [12],log2 fold change [13],log2 fold change [14],log2 fold change [15],log2 fold change [16],log2 fold change [17],log2 fold change [18],log2 fold change [19],log2 fold change [20]
ZFYVE16 (UniProt Q7Z3T8),inactive: 0.046,inactive: 0.026,inactive: 0.029,inactive: -0.018,inactive: -0.022,inactive: -0.026,inactive: 0.003,inactive: 0.011,inactive: 0.028,inactive: -0.007,inactive: 0.005,inactive: 0.035,inactive: -0.002,inactive: 0.025,inactive: -0.02,inactive: -0.005,inactive: -0.052,inactive: 0.011,inactive: 0.036,inactive: 0.011
ZFYVE19 (UniProt Q96K21),inactive: -0.051,inactive: -0.031,inactive: -0.004,inactive: 0.009,inactive: -0.015,inactive: -0.028,inactive: -0.067,inactive: -0.037,inactive: -0.013,inactive: -0.042,inactive: 0,inactive: 0.02,inactive: 0.016,inactive: 0.077,inactive: 0.023,inactive: 0.006,active: -0.232,inactive: 0.126,inactive: -0.027,inactive: 0.013
